Measurements reported in PubChem BioAssay AID651803 (National Center for Advancing Translational Sciences (NCATS), 2012).
Hit rate of the full screen: of about 1,200 compounds, fewer than 10 were called active. Calls come from the whole dose curve; as a rule, active = well fitted curve in the direction sought with a large enough effect; inconclusive = small, poorly fitted or top-dose-only effect, or another doubt; inactive = no such curve, though single readings can be large or run the other way. The list shows a part of the results.

The chains behind the UniProt entries cited, without tags or fusion partners. Where a name states a change or a piece, a line headed by the entry shows the natural chain unless it says otherwise.
UniProt P11308: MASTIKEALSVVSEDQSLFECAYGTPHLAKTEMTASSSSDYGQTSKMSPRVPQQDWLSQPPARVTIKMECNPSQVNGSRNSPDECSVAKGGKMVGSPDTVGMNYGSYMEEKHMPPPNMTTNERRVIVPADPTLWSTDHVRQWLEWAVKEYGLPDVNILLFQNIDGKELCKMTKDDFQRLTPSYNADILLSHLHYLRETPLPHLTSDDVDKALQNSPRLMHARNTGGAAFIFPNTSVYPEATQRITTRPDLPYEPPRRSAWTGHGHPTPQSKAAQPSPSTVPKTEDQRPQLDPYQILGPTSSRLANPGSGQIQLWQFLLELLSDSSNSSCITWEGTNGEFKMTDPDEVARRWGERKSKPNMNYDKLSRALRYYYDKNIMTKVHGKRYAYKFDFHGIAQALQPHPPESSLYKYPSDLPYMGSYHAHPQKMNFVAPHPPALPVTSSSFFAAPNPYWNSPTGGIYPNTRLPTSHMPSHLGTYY

These compounds were tested against Transcriptional regulator ERG (Homo sapiens) (UniProt P11308) (assay: qHTS for Small Molecule Inhibitors of the ERG Ets/DNA interaction: TR assay against cherry picks). Conditions: ERG Ets domain-DNA fluorescence polarization, Texas red probe; at 154 µM (top of the series).
In short: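 Polarization read sequentially for fluorescein (ex 480/em 535 nm) and Texas red (ex 555/em 632 nm) probes, 5 nM and 100 nM solutions, displaced from His-ERG Ets domain (1 uM solution), pH 7.5 Tris/KCl/EDTA/DTT buffer.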
Note: % of control where 0% means no effect.

Activity change, negative = inhibition, inactive:
COc1ccc(C(c2c(C)n(C)n(-c3ccccc3)c2=O)c2c(C)n(C)n(-c3ccccc3)c2=O)c(OC)c1OC 1.81%, CN(C)c1nc2n(c(=S)n1)CCS2 -12.7%, COc1ccccc1C/C(N)=N/OC(=O)COc1ccc(C)cc1C 6.17%, CC(=O)Nc1ccc(NC(=O)Cn2c(=O)n(-c3ccccc3)c(=O)c3oc4ccccc4c32)cc1 0.864%, O=C(COc1ccc(F)cc1)Nc1nnc(-c2ccncc2)s1 -8.56%, CCn1ccc2c(OCC(=O)Nc3ccc(C(C)=O)cc3)cccc2c1=O -2.76%, CCN1CCN(CCCNC(=O)C2CCN(c3nnc(-n4cccc4)s3)CC2)CC1 -2.91%, C#CCn1c(CCNC(=O)c2ccco2)nc2ccccc21 1.03%, C/C(=N\NC(=O)c1ccc(CSc2nc(C)cc(C)n2)cc1)c1ccco1 -6.9%, CN(C)C(=O)c1ccc(NC(=O)COc2ccc([N+](=O)[O-])cc2)cc1 -5.46%, Cc1ccccc1OCc1nnc(SCC(=O)Nc2ccc(N3CCOCC3)c(Cl)c2)n1C -15.8%, CC(=O)N1CCN(c2nnc(-c3ccccc3)c3ccccc23)CC1 -6.94%, CCCCN(CC)CCCNC(=S)Nc1ccc2nc(N3CCN(C)CC3)cc(C)c2c1 -19.3%, COCCNC(=O)CSc1nc2ccccc2c(=O)n1-c1cccc(OC)c1 -10.6%, CCc1nn2c(=O)cc(CSCC(=O)Nc3ccccc3F)nc2s1 0.547%, Fc1cccc(NC(=S)N2CCN(c3ccccn3)CC2)c1 6.51%, Cc1noc(C)c1CSCC(=O)Nc1cc(S(=O)(=O)N2CCOCC2)ccc1OC(C)C 4.53%, CCC(Sc1nccn1C)C(=O)Nc1ccc(Cl)cn1 (configuration not stated) 0.0641%, CCn1nc(C)c(CNC(=O)c2cc(COc3ccccc3SC)on2)c1C -12.1%, COC(OC)c1nc(SCC(=O)Nc2cccc(Cl)c2)ncc1C(=O)O 4.07%, CC(C)N=c1cc2n(-c3ccc(Cl)cc3)c3ccccc3nc-2cc1Nc1ccc(Cl)cc1 4.41%, CC(C)CN=CC1=C(O)c2ccccc2C1=O 1.63%, COc1cc(/C=C2/SC(=O)NC2=O)ccc1OC(=O)c1ccco1 -5.95%, CC(CCC(=O)O)C1CCC2C3C(O)CC4CC(O)CCC4(C)C3CC(O)C12C (configuration not stated) -8.1%, O=C(N/N=C/c1cccs1)c1cccs1 -19.9%, CC(C)NC(=O)Cn1cnc2c(cnn2-c2ccc(F)cc2)c1=O 1.86%, Cc1nc(-c2ccc(F)cc2)c(CC(=O)N2CCN(S(=O)(=O)c3cccc(F)c3)CC2)s1 -7.98%, CC(C)N1CCC(N2CCN(Cc3cccc4nonc34)CC2CCO)CC1 (configuration not stated) 6.57%, CCc1ccccc1N(CC(=O)NCc1ccco1)C(=O)CCC(=O)Nc1ccccn1 -0.223%, O=C(Nc1c(C(=O)C2CC2)oc2ccccc12)c1ccc(Cl)cc1 -18.4%, Cc1ccc(NS(=O)(=O)c2cc(Br)cnc2N)c(Cl)c1 -14.9%, Cc1cc(C)cc(-n2ccnc2SCC(=O)Nc2ccc(C)c(Cl)c2)c1 -21.9%, CCCn1c(=N)c(S(=O)(=O)c2ccccc2)cc2c(=O)n3ccccc3nc21 -0.744%, CCOc1ccc(NC(=O)CCNS(=O)(=O)c2cccc3nsnc23)cc1 -17.3%, CCC1CCC(NC(=O)Nc2cccc(OC)c2)CC1 (configuration not stated) -3.04%, Cc1cccc(Nc2c(O)nc[nH]c2=O)c1 1.66%, Cn1cccc1C(=O)OCC(=O)Nc1ccc2[nH]c(=O)[nH]c2c1 -18.6%, O=C(O)c1ccc(CSCc2ccccc2F)o1 -8.02%, C[C@H](NC(=O)[C@@H]1Cc2ccccc2CN1C(=O)OC(C)(C)C)C(=O)NC1CCCCC1 3.13%, CCOCCn1c(CN2CCCCC2)nc2c1c(=O)n(C)c(=O)n2C -5.6%, CCOC(=O)C1=C(C)N=c2s/c(=C\c3cc(OC)c(OC)c(OC)c3)c(=O)n2C1/C=C/c1ccccc1 (configuration not stated) 3.6%, CC(=O)Nc1ccc(S(=O)(=O)N[C@@H](C)C(=O)N2CCN(C/C=C/c3ccccc3)CC2)cc1 -0.505%, CC(=O)Nc1ccc2c(c1)NC(=O)CC2 -10.3%, CC(C)(CO)CNC(=O)c1ccc(OC2CCN(C(=O)C3CC3)CC2)cc1 -13.8%, O=C(NCc1ccc(F)cc1F)c1cc(COc2c(F)cccc2F)on1 9.58%, O=C(OCC(=O)c1c[nH]c2ccccc12)c1ccc([N+](=O)[O-])s1 -15.3%, Cc1oc2nc(SCCCC(=O)NCCCO)nc(N)c2c1C 5%, CCc1c(C)sc(NC(=O)OC)c1C(=O)N1CCCCC1 37.7%, Cc1ccc(CNC(=O)CSCc2ccc(F)cc2)cc1 6.78%, O=C(O)CC(c1cccc2ccccc12)N1Cc2ccccc2C1=O (configuration not stated) -0.839%, S=c1nc[nH]c2nc[nH]c12 -2.25%, CC(=O)Nc1ccc(-c2csc(NC(=O)C3CC(=O)N(c4ccc5c(c4)OCCO5)C3)n2)cc1 (configuration not stated) -2.75%, CCCC(=Nc1ccc(N)cc1)C1=C(O)C(C(=O)OC)C(C)(C)CC1=O (configuration not stated) 7.31%, COc1ccccc1CN1CCCCC1C(=O)O (configuration not stated) 5.9%, O=C(Nc1ccc(O)cc1)C1CC=CCC1 (configuration not stated) -10.8%, Cc1ccccc1-n1c(=O)n(CCc2ccccc2)c(=O)c2[nH]cnc21 6.33%, CCS(=O)(=O)N1CCC(C(=O)OCC(=O)c2ccc(Br)cc2)CC1 8.14%, COc1ccc(Cl)cc1N=Cc1c(O)c2ccccc2oc1=O -10.2%, C=CCN1C(=O)c2ccc(C(=O)Nc3ccccn3)cc2C1=O -1.88%, Cc1cccc(N2C(=O)c3cccc4c(N)ccc(c34)C2=O)c1 85.1%, O=c1ccc(-c2ccc(S(=O)(=O)Nc3cccc(Br)c3)o2)n[nH]1 2.8%, O=C1Nc2cc(C(=O)N3CCOCC3)ccc2SC1N1CCOCC1 (configuration not stated) 24.3%, CC(C)=CCC/C(C)=C/CNC(=O)C[C@H]1C[C@H](C(=O)N2CCCCC2)[C@@]2(CCc3ccccc3)c3[nH]c4cc(-c5ccco5)ccc4c3CCN2C1=O 33.8%, NS(=O)(=O)c1ccc(-c2ccc(/C=C3\SC(=S)N(C4CCS(=O)(=O)C4)C3=O)o2)cc1 (configuration not stated) 41.9%, Cc1csc(SCC(=O)NC2CCS(=O)(=O)C2)n1 (configuration not stated) 3.76%, O=C(CCN=C1NS(=O)(=O)c2ccccc21)OCc1ccccc1 8.89%, COC(=O)Nc1ccc(S(=O)(=O)NNC(=O)c2c(O)c3ccccc3n(C)c2=O)cc1 -14.6%, Cc1ccc(S(=O)(=O)/N=C(/NC(=S)Nc2c(C)n(C)n(-c3ccccc3)c2=O)c2ccccc2)cc1 4.97%, COc1cc(OC)c(N(C)S(=O)(=O)c2cccc(C(=O)NC(C)C3CC4CCC3C4)c2)cc1Cl (configuration not stated) -3.28%, CCCN(CC(=O)Nc1ccc(F)c(F)c1F)C(=O)C1CC(=O)N(Cc2ccccc2)C1 (configuration not stated) 0.104%, Clc1ccc(N=c2ssnc2Cl)nc1 22.8%, O=C(OCC(=O)c1ccc(Cl)s1)c1cncc(Br)c1 -5.16%, COC(=O)c1ccccc1NC(=O)c1cc(C2CC2)on1 -11.6%, Nc1cccc2c(O)cc(S(=O)(=O)O)cc12 -7.17%, CC1=C(C#N)CCC(=O)N1Cc1c(F)cccc1Cl 3.55%, Nc1c(C(=O)O)cnn1-c1ccccc1 -3.42%, CCN(Cc1ccccc1)C(=O)CN1C(=O)c2ccccc2C1=O -0.388%, O=C(COc1coc(CN2CCCc3ccccc32)cc1=O)Nc1cccc([N+](=O)[O-])c1 2.41%, Cc1ccc(S(=O)(=O)NCC(=O)N(CC(=O)NCC2CCCO2)c2cccc(F)c2)cc1 (configuration not stated) -5.86%, COc1cc2ccccc2ccc1=NO -9.11%, CCCn1c(SCC(=O)Nc2cccc(C(=O)OCC)c2)nnc1-c1ccoc1C 11.3%, CC(CCc1ccccc1)NC(=S)NC1CCCCC1 (configuration not stated) 10.3%, CC(C)=CCOc1ccc2ccc(=O)oc2c1 -0.682%, Cc1ccc(-n2c(CCC(=O)O)ccc2-c2cccs2)cc1Cl -7.34%, Cc1cccc(-c2oc3ccccc3c2-c2ccc3c(c2)OCO3)c1 2.05%, O=C(NCCCc1ccccc1)C(=O)NCC1OCCN1S(=O)(=O)c1cc(F)ccc1F (configuration not stated) 12.2%, Cc1ccc(S(=O)(=O)N2CCC[C@H]2C(=O)NC2CCCCC2)cc1 -7.93%, COc1ccc(CS(=O)c2nc(C)cc(C)c2S(C)(=O)=O)cc1 (configuration not stated) -3.05%, CCOc1ccc(-c2nnc(NC(=O)Cc3cc(OC)c(OC)c(OC)c3)o2)cc1 3.11%, CCOC(=O)c1ccc(NC(=S)N2CCSC2c2ccc(OC)cc2)cc1 (configuration not stated) 25.8%, O=C(Nc1ccccc1N1CCCCC1)c1ccc2nccnc2c1 -20.5%, COc1ccc(-c2c/c(=N\c3nc(-c4ccccc4)c(C)s3)c3ccccc3o2)cc1O -21.1%
